Measurements published in publication PMC12050090.
Results are given in words; binding and its absence hold for the method and conditions named. Binding seen in cells or lysates may run through a third protein. Some entries that bind do so weakly or less than the wild type.

Chains of the proteins cited; added tags and fusions are not shown.
UniProt P23258: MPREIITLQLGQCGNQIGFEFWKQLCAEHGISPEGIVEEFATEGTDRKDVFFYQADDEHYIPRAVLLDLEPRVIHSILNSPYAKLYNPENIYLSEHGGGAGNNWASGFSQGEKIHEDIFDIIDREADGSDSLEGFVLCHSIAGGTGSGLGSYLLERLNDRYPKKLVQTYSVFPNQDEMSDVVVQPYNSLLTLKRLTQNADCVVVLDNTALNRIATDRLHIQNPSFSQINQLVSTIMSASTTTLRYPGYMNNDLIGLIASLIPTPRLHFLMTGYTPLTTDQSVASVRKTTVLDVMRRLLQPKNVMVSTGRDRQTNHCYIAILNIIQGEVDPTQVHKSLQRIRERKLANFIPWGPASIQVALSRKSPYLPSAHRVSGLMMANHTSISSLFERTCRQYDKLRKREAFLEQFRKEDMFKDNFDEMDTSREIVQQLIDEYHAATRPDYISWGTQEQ
UniProt Q96SD1: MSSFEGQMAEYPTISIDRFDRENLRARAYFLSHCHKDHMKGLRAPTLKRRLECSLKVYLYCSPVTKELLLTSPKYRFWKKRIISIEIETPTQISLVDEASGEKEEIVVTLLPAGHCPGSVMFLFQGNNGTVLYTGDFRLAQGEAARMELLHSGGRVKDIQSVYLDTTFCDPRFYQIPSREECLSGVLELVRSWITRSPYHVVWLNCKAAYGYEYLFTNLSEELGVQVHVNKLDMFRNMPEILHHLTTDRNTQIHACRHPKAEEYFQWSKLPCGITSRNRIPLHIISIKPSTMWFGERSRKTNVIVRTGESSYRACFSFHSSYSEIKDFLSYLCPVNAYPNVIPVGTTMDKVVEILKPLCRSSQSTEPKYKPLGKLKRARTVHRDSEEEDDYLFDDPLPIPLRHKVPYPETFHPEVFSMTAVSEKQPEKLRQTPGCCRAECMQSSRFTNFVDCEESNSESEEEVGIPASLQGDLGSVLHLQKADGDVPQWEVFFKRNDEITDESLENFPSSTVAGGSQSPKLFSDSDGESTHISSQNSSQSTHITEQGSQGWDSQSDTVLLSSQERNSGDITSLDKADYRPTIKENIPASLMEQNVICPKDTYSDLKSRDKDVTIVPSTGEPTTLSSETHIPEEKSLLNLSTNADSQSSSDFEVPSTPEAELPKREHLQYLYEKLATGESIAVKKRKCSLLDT
UniProt P15927: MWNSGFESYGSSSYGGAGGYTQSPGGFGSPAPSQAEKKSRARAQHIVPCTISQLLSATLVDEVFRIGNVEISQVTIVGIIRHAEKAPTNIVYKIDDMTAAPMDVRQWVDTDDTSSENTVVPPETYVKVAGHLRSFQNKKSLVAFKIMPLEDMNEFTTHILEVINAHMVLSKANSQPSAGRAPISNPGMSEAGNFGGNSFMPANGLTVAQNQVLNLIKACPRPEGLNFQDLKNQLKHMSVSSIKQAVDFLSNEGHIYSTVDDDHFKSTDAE
UniProt Q06609: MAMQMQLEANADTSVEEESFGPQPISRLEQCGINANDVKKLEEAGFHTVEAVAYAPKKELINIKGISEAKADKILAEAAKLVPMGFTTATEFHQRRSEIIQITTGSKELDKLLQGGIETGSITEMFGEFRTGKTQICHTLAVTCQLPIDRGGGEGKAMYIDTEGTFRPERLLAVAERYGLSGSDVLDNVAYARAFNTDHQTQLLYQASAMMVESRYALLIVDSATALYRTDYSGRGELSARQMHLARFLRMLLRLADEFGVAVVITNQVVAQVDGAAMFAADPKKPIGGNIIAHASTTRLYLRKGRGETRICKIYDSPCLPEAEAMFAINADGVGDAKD
UniProt P13010: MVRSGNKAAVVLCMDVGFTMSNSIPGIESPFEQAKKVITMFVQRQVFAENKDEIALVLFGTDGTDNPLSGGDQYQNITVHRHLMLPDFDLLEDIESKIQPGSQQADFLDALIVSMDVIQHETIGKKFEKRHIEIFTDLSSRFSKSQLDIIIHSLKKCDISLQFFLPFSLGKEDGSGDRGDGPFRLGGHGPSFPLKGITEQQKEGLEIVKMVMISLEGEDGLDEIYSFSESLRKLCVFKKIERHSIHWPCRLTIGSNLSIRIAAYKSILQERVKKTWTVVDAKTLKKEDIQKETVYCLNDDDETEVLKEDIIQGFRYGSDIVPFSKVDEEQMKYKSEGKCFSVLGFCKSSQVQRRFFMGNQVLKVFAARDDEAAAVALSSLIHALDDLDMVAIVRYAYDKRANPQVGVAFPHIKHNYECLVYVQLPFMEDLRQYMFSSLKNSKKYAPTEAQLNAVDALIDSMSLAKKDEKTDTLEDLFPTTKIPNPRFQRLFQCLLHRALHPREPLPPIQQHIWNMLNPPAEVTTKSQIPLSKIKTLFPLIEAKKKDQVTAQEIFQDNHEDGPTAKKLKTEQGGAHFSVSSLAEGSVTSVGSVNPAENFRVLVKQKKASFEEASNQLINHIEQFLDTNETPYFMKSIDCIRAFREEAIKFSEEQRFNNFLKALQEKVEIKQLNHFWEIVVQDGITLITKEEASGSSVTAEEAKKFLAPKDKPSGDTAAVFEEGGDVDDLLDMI
UniProt P27694: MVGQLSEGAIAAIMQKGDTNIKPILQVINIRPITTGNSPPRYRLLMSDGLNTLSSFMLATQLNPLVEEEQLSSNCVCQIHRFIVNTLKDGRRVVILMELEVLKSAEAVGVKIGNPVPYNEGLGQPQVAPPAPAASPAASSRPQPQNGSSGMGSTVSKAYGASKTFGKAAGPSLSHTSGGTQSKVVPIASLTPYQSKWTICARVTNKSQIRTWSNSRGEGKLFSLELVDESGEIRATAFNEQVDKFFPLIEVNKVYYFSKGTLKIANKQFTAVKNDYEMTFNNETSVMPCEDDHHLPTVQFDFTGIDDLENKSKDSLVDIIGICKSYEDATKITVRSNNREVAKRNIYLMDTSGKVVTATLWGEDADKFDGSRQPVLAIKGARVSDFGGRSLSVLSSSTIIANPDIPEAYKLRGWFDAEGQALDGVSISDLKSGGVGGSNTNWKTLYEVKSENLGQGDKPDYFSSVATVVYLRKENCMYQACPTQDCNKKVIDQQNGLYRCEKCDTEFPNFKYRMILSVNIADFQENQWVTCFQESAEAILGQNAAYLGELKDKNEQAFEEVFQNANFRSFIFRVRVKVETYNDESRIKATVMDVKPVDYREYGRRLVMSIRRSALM
UniProt P09874: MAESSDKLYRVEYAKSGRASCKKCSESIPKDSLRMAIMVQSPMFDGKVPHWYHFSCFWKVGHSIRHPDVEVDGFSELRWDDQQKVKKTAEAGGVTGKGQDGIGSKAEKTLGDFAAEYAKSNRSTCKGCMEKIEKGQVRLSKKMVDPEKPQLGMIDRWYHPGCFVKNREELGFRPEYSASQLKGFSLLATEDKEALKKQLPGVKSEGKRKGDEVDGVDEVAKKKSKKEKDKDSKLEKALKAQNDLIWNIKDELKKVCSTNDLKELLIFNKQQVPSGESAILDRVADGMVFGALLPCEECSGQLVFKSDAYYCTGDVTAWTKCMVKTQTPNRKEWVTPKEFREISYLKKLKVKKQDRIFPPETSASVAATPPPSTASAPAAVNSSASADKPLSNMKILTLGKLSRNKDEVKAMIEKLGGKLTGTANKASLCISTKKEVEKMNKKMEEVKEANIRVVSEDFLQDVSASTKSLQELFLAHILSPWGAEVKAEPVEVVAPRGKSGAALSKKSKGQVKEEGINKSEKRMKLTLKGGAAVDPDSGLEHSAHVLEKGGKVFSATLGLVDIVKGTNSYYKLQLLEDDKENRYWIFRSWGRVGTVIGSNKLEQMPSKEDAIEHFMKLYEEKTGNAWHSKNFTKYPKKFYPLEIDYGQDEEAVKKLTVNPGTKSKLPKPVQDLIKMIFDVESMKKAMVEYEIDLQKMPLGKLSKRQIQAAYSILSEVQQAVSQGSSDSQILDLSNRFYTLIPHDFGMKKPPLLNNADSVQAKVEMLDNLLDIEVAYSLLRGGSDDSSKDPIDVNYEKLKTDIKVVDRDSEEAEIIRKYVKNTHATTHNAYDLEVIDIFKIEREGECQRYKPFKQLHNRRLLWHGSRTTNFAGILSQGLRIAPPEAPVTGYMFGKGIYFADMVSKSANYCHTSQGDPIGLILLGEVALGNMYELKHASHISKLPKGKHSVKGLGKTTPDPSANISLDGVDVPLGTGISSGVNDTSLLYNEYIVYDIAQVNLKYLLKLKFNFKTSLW

Target: γ-tubulin (human (endogenous in HeLa)) (UniProt P23258)
Assay: co-IP; anti-γ-tubulin antibody on magnetic beads incubated with HeLa cell lysates, cells with or without etoposide; washed three times with PBS; control with blank beads; immunoblotting

Substance | binding
artemis (from UniProt Q96SD1 1-692) | binds
RPA32 (from UniProt P15927 1-270) | binds
RAD51 (from UniProt Q06609 1-339) | binds
Ku80 (from UniProt P13010 1-732) | binds
RPA70 (from UniProt P27694 1-616) | binds
poly-ADP-ribose polymerase 1 (from UniProt P09874 1-1014) | binds

Target: Ku80 (human (endogenous in HeLa)) (UniProt P13010)
Assay: co-IP; anti-Ku80 antibody on magnetic beads incubated with lysates of HeLa cells treated with bleomycin; washed three times with PBS; control with blank beads; immunoblotting

Substance | binding
γ-tubulin (from UniProt P23258 1-451) | binds
